The text below walks through data of paper PMC7948453.

The chains behind the UniProt entries cited, without tags or fusion partners.
UniProt P62869: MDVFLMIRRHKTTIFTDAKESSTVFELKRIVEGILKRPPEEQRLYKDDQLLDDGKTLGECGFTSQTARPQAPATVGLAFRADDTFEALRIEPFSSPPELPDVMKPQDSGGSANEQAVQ
UniProt Q9QZH3: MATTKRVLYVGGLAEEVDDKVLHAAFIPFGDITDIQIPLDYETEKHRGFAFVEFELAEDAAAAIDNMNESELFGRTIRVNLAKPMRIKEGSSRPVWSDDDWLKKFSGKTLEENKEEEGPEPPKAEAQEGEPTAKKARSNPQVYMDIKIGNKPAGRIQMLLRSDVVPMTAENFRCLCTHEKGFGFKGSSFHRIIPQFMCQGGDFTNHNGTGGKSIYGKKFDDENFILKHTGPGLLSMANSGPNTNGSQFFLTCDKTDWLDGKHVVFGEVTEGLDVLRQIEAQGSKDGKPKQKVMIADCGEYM
UniProt P40201: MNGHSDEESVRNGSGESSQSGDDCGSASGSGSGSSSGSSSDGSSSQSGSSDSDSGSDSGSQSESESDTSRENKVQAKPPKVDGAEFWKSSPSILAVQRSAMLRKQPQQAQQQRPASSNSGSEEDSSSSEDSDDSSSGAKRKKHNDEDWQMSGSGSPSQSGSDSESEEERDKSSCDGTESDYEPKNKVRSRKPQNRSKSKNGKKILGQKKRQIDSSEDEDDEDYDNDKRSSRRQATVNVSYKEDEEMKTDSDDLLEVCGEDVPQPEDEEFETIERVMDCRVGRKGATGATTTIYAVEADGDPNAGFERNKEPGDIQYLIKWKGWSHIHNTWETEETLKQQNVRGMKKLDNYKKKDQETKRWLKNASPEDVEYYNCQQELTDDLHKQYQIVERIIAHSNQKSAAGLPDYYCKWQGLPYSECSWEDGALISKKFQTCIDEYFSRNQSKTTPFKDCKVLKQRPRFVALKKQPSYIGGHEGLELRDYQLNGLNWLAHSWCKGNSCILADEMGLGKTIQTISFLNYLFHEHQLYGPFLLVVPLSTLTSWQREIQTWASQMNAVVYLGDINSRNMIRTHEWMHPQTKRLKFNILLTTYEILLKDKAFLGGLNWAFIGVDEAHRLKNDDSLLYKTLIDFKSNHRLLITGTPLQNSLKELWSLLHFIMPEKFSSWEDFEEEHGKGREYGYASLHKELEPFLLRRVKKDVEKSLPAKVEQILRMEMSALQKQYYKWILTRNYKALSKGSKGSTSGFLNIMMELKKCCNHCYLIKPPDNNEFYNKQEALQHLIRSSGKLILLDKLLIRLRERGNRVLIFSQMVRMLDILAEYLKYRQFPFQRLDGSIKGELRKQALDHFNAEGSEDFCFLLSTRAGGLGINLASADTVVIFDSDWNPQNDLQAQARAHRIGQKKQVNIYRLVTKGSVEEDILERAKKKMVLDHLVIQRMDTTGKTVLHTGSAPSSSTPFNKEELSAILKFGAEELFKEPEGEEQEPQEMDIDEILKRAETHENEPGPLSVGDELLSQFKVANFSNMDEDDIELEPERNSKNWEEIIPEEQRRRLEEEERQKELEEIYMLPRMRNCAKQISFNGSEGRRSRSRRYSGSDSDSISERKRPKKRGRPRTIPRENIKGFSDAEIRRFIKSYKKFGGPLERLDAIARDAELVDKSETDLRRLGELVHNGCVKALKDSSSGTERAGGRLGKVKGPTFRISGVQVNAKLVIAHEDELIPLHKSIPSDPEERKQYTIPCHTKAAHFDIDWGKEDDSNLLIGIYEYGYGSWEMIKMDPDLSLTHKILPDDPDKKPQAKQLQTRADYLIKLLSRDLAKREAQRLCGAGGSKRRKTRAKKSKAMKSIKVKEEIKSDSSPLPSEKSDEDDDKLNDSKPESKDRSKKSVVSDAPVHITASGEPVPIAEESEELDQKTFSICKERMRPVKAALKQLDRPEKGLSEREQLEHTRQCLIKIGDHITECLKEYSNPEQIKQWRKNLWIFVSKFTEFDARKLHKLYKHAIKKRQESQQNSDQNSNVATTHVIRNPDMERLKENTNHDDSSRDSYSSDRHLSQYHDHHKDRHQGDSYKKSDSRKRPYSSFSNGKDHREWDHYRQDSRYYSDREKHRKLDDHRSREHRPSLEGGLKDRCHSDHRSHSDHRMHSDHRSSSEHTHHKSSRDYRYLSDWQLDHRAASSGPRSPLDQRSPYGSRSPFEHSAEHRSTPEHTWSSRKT

Results are given in words; binding and its absence hold for the method and conditions named. In cells and extracts the contact can be indirect. These calls come from enrichment with a bait or labelling near it, and not all partners need be listed.

For the experiment, the target named is T1, Elongin A (mouse (endogenous in mESC)) (UniProt Q8CB77).
T1 sequence: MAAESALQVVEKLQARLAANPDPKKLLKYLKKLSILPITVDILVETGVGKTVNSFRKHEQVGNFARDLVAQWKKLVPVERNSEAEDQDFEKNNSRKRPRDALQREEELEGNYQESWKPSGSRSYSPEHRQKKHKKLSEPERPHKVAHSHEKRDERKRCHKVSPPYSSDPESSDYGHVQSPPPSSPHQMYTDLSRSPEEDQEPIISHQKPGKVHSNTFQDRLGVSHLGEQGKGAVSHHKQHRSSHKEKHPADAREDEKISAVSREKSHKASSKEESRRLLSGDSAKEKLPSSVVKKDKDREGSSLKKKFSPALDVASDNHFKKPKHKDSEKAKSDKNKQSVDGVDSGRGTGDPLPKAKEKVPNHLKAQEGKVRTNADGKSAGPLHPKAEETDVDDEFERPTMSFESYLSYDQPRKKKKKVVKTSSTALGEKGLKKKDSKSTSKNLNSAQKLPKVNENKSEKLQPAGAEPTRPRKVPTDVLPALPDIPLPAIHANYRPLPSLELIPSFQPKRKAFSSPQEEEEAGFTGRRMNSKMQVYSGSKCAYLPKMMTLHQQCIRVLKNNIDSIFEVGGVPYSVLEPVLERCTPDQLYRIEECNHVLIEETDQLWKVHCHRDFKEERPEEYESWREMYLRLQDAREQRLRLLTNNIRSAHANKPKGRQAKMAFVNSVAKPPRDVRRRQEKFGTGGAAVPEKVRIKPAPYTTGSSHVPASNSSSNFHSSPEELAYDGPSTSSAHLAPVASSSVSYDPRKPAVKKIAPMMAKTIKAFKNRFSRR
Briefly: affinity purification with mass spectrometry; IP of endogenous EloA with goat anti-EloA (SCBT, R-19) on magnetic protein G from MEF-depleted mESC nuclear extract (no solubilized chromatin fraction), 300 mM KCl, 0.05% NP-40, 3 h at 4 °C; control IP from EloA null mESC.

Regarding Elongin B (from UniProt P62869 1-118), the binding result is given as “binds”.

Regarding PPIE (from UniProt Q9QZH3 1-301), the binding entry is given as “binds”.

On to “chromatin remodeling factor CHD1 (from UniProt P40201 1-1711)”, for which the binding result is given as “binds”.

B1: Ddx51 (protein, UniProt Q6P9R1 1-639)
chain: MALFHIARYAGPEAAGQGDTDAEAGSRARVLLERLQNRARERQQREPELETTGTAGEGEAAAAGKRRRRPRRRRRVSGSATPNSEAPRAKRRKADKDVDAGRGEEAPEELSAGAEDPGANPQEDVQRPPAPGRVLGDFARRKTPKVQPFLPAWLAKPSCVKKSVTEDLTPIEDIPEVHPDLQKQLRANGITSYFPVQAAVIPALLESADHGFLIGRGGYQPSDLCVSAPTGSGKTLAFVIPVVQALLHRVVCHIRALVVLPTKELAQQVSKVFNIYTDTTPLRVALVTGQKSLAKEQESLVQKTADGFRCLADIVVATPGRLVDHIDQTPGFSLQQLRFLIIDEADRMIDSMHQSWLPRVVAAAFYSEGPTGSCALLQRTQPQALTAASTCVPQMPLQKLLFSATLTQDPEKLQRLGLYQPRLFSTRLGQQSPKDTAEVDENSGKYTFPVGLTHHYVPCRLSSKPLIVLHLVLRMSCSRALCFTNSRENSHRLYLLAQAFGGVSVAEFSSRYGPGQRKKILKQFEQGKIQLLISTDATARGIDVQGVELVINYDAPQYLRTYVHRVGRTARAGKTGQAFTLLLKVQERKFLQMVSEAGVPELTHHEIPRKLLQPLVARYETALSQLEKTVKEEQKLKAA
For B1, the binding result is recorded as “binds”.

B2: Xeroderma pigmentosum group A (XPA)-binding protein 2 (protein, UniProt Q9DCD2 1-855)
chain: MVVMARVPRSERPDLVFEEEDLPYEEEIMRNQFSVKCWLRYIEFKQGAPKPRLNQLYERALKLLPCSYKLWYRYLKARRAQVKHRCVTDPAYEDVNNCHERAFVFMHKMPRLWLDYCQFLMDQGRVTHTRRTFDRALRALPITQHSRIWPLYLRFLRSHPLPETAVRGYRRFLKLSPESAEEYIEYLKSSDRLDEAAQRLATVVNDERFVSKAGKSNYQLWHELCDLISQNPDKVQSLNVDAIIRGGLTRFTDQLGKLWCSLADYYIRSGHFEKARDVYEEAIRTVMTVRDFTQVFDSYAQFEESMIAAKMETASELGREEEDDVDLELRLARFEQLISRRPLLLNSVLLRQNPHHVHEWHKRVALHQGRPREIINTYTEAVQTVDPFKATGKPHTLWVAFAKFYEDNGQLDDARVILEKATKVNFKQVDDLASVWCQCGELELRHENYDEALKLLRKATALPARRAEYFDGSEPVQNRVYKSLKVWSMLADLEESLGTFQSTKAVYDRILDLRIATPQIVINYAMFLEEHKYFEESFKAYERGISLFKWPNVSDIWSTYLTKFISRYGGRKLERARDLFEQALDGCPPKYAKTLYLLYAQLEEEWGLARHAMAVYDRATRAVEPAQQYDMFNIYIKRAAEIYGVTHTRGIYQKAIEVLSDEHAREMCLRFADMECKLGEIDRARAIYSFCSQICDPRTTGAFWQTWKDFEVRHGNEDTIREMLRIRRSVQATYNTQVNFMASQMLKVSGSATGTVSDLAPGQSGMDDMKLLEQRAEQLAAEAERDQPPRAQSKIFFVRSDASREELAELAQQANPEEIQLGEDEDEDEMDLEPNEVRLEQQSVPAAVFGSLKED
For B2, the binding entry is on record as “binds”.

B3: ISY1 (protein, UniProt Q69ZQ2 1-285)
chain: MARNAEKAMTALARFRQAQLEEGKVKERRPFLASECTELPKAEKWRRQIIGEISKKVAQIQNAGLGEFRIRDLNDEINKLLREKGHWEVRIKELGGPDYGKVGPKMLDHEGKEVPGNRGYKYFGAAKDLPGVRELFEKEPLPPPRKTRAELMKAIDFEYYGYLDEDDGVIVPLEQEYEKKLRAELVEKWKAEREARLARGEKEEEEEEEEEINIYAVTEEESDEEGNQEKAGEDGQQKFIAHVPVPSQQEIEEALVRRKKMELLQKYASETLQAQSEEAKRLLGY
In the case of B3, the binding result is recorded as “binds”.

B4: putative RNA exonuclease Rexo1 (protein, UniProt Q7TT28 1-1213)
chain: MLRSTGFFRSIDCPYWAGAPGGPCRRPYCHFRHRGARGPGAPGSGGAASPASGLGYDPYNPELPQPPVQRENGALGQGDGMLELELVNQAIEAVRGEVELEQRRYQELLETARGHSAGPSALAPCSPATSIDDDDTFSLALTYTPGGLLSPDAAYQPTPLAVPAEPGHKYSLAPSDRSQGRAAGGAGALEYVPKAVGQPRRCGRPVSGGKYVVDSSKPSTDLEYDPLSNYSARHLGRASARDERATKRPRGSRGAEPYTPALKKPCDPFGGCEARFSDSEDDVTSPPKADVSSPKAGADPESKAPGKPVSKEGREHEDGGLRGTKEMAVQYDVEDLGQPPKAPDTVSVVKPGSPARASQDARVPKEGKAKKKKSGTSASLSHKDKVRKKDKKKEKDPARPRGKEKVCTDKKKLPASNPRGKAQGPEGTKKKPSSATTVASSGKGGSGRPSSTGPQDSGPGPHAPLAWKAGSAKKMSSGKLVERKARSLDEGAPQDTPKLKKRALSHAELFGDESEEEDSSLGAGAPRVWPPTLPSLSSDSESDSDSSLGLDETKVPKRLKAAPPASPVPPSPLSSSSSSSGASQCAEEDVDYSALEKEVDFDVDPMEECLRIFNESTSVKTEDKGRLARQPPKEKAEEKTHAGLTTLFPGQKRRVSHLCKPGKESEAPKRTPVAPPARPPTAQEVCYRRAQLAQRDSASWLQAAPRPTERLSSVHISAPGEKRRIAHVPNPRLAAAPTGAKRALSASSSQASHGPEPGSQPLKTRTLSGMASKTTTTVTPKRIAHSPSLQSLKKPVIPKEFGGKVPTVVRQRYLNLFIEECLKFCSSNQEAIEKALNEEKVAYDRSPSKNIYLNVAVNTLKKLRGLVPNTVPNLSKASGRRVVSHEVVLGGKLAAKTSFSLSRPSSPRVEELKGTALYSRLREYLLTQEQLKENGYPFPHPERPGGAIIFTAEEKKPKDPSCRICCRCGTEYLVSSSGRCVRSEECYYHWGRLRRNRVAGGWETQYMCCSAAVGSVGCQVAKQHVQDGRKENLEGFVRTFQKELPEDAHAGVFALDCEMSYTTYGLELTRVTVVDTDMQVVYDTFVKPDNEVVDYNTRFSGVTEADLVDTSITLRDVQAVLLSMFSADTILIGHSLESDLLALKVIHGTVVDTSVLFPHRLGLPYKRSLRNLMADYLRQIIQDNVDGHSSSEDASACMHLVIWKIREDAKTKR
Turning to B4, the binding result is on record as “binds”.
